# Measurements: patent US20090011974A1, “Scavenger Receptor B1 (Cla-1) Targeting for the Treatment of Infection, Sepsis and Inflammation” (priority 2002, published 2009)
# “Also recorded” adds a separate entry of the source. Not every detail of the peptide structures is certain; ends, links or a residue may be inferred. Where a SMILES comes first, the peptide text is derived from it.
# How the values were obtained:
# CLA-1 [1] = molecular target: T1, CLA-1 (Homo sapiens, UniProt Q8WTV0); format: binding; conditions: 1 μg/ml 125I-LPS, mock transfected and CLA-1 overexpressing HeLa cells
# T1 construct: using the expression plasmid pTRE2 (Clontech, Pal Alto, Calif.), encoding a CLA-1 protein (pTRE2-CLA-1); expressed in transfected cells; host or cells: HeLa (Tet-off) cells (Clontech), stably co-transfected with pTRE2-CLA-1 and pTK-Hyg and selected with hygromycin
# T1 sequence (Q8WTV0 1-509 isoform Q8WTV0-2): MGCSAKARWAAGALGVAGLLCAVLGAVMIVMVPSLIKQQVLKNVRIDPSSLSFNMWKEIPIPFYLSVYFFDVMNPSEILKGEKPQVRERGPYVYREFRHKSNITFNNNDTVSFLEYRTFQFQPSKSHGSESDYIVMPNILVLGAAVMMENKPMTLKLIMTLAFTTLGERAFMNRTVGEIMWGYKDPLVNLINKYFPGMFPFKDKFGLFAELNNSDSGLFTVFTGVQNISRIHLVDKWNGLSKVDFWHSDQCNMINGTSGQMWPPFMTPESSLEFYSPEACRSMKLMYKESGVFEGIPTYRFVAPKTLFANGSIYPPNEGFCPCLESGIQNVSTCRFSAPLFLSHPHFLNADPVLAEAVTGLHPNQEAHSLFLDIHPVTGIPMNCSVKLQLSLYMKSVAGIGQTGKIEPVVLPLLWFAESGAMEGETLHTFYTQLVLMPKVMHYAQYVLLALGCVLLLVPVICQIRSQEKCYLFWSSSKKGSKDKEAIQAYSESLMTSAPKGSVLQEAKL
# Protocol: The lipopolysaccharide 0111:B4 (Sigma) is iodinated as reported by Ulevitch, R J. (1978) (“THE PREPARATION AND CHARACTERIZATION OF A RADIO IODINATED BACTERIAL LIPOPOLYSACCHARIDE,” Immunochemistry 15:157-164). […] After a 2-hr-incubation on ice, the cells are rinsed with ice-cold HBSS and utilized for radioactivity measurements as reported by Bocharov, A. V. et al. (2001) (“CHARACTERIZATION OF A 95 KDA HIGH AFFINITY HUMAN HIGH DENSITY LIPOPROTEIN-BINDING PROTEIN,” Biochemistry 40:4407-4416). Specific binding is determined as the difference between total and non-specific binding, and normalized by protein content.
# HeLa cells grown until 70% confluence in DMEM with 10% FCS are washed with PBS and cultured for 24 hr in serum-free DMEM. […] After washing with ice-cold PBS, the cells are hydrolyzed in 1 N NaOH. Radioactivity is counted in an LKB Wallac Ultragamma counter.
# [2] = test system: CLA-1 overexpressing HeLa cells; experiment: Bodipy-LPS uptake in HeLa cells in the presence of competitors; format: cell-based, human; conditions: 100-fold excess of peptide
# Protocol: HeLa cells cultured on collagen-coated glass micro-slides are incubated with 5 μg/ml of Alexa 568 HDL, 1-0.5 μg/ml of Alexa 568 apoA-I, 1-0.5 μg/ml of Alexa 568 apoA-II or 0.5 μg/ml Bodipy-LPS for 1-2 hour in a CO2 incubator in DMEM containing 20 mg/ml BSA. […] Imaging is performed in PBS containing 0.4 mg/ml of Trypan Blue as the quenching agent. […] For co-localization, Bodipy-LPS and Alexa-568-apoA-I are used at the same concentration of 0.5 μg/ml. […] For co-localization experiments, fluorescence is viewed with a Zeiss 510 laser scanning confocal microscope, using a krypton-argon-Omnichrome laser with excitation wavelengths of 488 and 568 nm for Bodipy-LPS and Alexa-568, respectively.
# HeLa cells cultured on glass micro-slides are incubated with 5 μg/ml of Alexa568 HDL, 1-0.5 μg/ml of Alexa 568 apoA-I, 1-0.5 μg/ml of Alexa 568 L-37PA or 0.5 μg/ml Bodipy-LPS for 1-2 h in a CO2 incubator in DMEM containing 1 mg/ml BSA. […] Fluorescence was viewed with a Zeiss 510 laser scanning confocal microscope, using a krypton-argon-Omnichrome laser with excitation wavelengths of 488 and 568 nm for Bodipy-LPS and Alexa-568 labels, respectively.
# Competition Experiments. […] The lysate fluorescence is measured by HTS7000 Bioassay reader (Perkin Elmer) using 488 nm for excitation and 533 nm for emission monitoring.
# THP-1 cells [3] = experiment: LPS-stimulated cytokine production in THP-1 cells (ELISA); format: cell-based, human; conditions: 10 ng/ml LPS, 24 h
# Protocol: (§1) THP-1 and CLA-1 overexpressing HeLa cells. Human monocyte-macrophages, THP-1 (ATCC [American Type Culture Collection] TIB 71), are grown in 48-well plates in RPMI 1640 medium supplemented with 10% fetal calf serum (FCS), penicillin (100 U/ml), and streptomycin (100 μg/ml). All experiments involving LPS-induced interleukin production utilize the same media except that 1% FCS was used. Hela cells were cultured as previously reported (Vishnyakova, T. G. et al. (2003) “BINDING AND INTERNALIZATION OF LIPOPOLY[…] CLA-1, A HUMAN ORTHOLOGUE OF RODENT […] RECEPTOR B1,” J. Biol. Chem 278:22771-22780).
# Assays for cytokines and lactate dehydrogenase (LD). […]
# THP-1 cells [4] = experiment: LTA, Gro-EL and HSP60 stimulated IL-8/IL-6 production in THP-1 cells; format: cell-based, human
# Protocol: as §1
# (§2) Assays for cytokines and lactate dehydrogenase (LD).
# [5] = Limulus amebocyte lysate (LAL) assay for LPS incubated with peptides; conditions: 10 ng/ml LPS, 10 μg/ml peptide, 37° C., 24 h; for effect on LAL activity of LPS in the absence of bivalent cations: PBS; for effect on LAL activity of LPS in media containing bivalent cations: RPMI-1640 1% FCS or DPBS
# Text: Limulus Amebocyte Lysate (LAL) Assay for LPS.
# Limulus amebocyte lysate (LAL) assay for LPS.
# THP-1 cells [6] = experiment: TNFα-induced IL-6 and IL-8 secretion in THP-1 cells; format: cell-based, human
# Text: as §2
# CLA-1 [7] = molecular target: T1, CLA-1; experiment: Confocal uptake of Alexa/Bodipy labelled ligands in CLA-1 expressing versus mock transfected HeLa cells; format: cell-based; conditions: labelled ligand, confocal microscopy
# Protocol: Preparation of BODIPY-LPS and Alexa-568 HDL, Lipid-free ApoA-I, L-37PA, L2D-37PA and 18A. HDL, apoA-I, L-37PA, L2D-37PA and 18A are conjugated with Alexa-568, SE (Molecular Probes, protein labeling kit) following the kit instructions. The Alexa ligands are analyzed by 10-20% Tricine-SDS peptide gel electrophoresis. Gels are scanned using Variable Mode Imager, Typhoon 9200, Molecular Dynamics. Alexa-labeled preparations of HDL, apolipoproteins and the peptides are found in appropriate positions with molecular masses of 28, 5 and 2.5 kDa for apoA-I, L-37PA and 18PA, respectively.
# HeLa cells cultured on glass micro-slides are incubated with 5 μg/ml of Alexa568 HDL, 1-0.5 μg/ml of Alexa 568 apoA-I, 1-0.5 μg/ml of Alexa 568 L-37PA or 0.5 μg/ml Bodipy-LPS for 1-2 h in a CO2 incubator in DMEM containing 1 mg/ml BSA. […] For co-localization, Bodipy-LPS and Alexa 568-HDL or Bodipy-LPS and Alexa 568-L-37PA were used at the same concentrations of 0.5 μg/ml. Fluorescence was viewed with a Zeiss 510 laser scanning confocal microscope, using a krypton-argon-Omnichrome laser with excitation wavelengths of 488 and 568 nm for Bodipy-LPS and Alexa-568 labels, respectively.
# CLA-1 [8] = molecular target: T1, CLA-1; experiment: Competition for Alexa 488-SAA uptake in CLA-1 overexpressing and mock transfected HeLa cells (FACS); format: binding; conditions: mock transfected and CLA-1 overexpressing HeLa cells
# Protocol: Competition experiments. Cells are cultured for 24 hr in serum free DMEM before experiments. […] For KKB-1 anti-CLA-1 blocking experiments, cells are pre-incubated with KKB-1 rabbit anti-serum (non-immune rabbit serum as a negative control) at a dilution of 1:10 followed by ligand addition to a final concentration of 5 μg/ml and a 1-hour incubation. Cell fluorescence was analyzed by FACS analyses.
structure (smiles),measurement,setting,value
CC(C)C[C@H](NC(=O)[C@H](Cc1c[nH]c2ccccc12)NC(=O)[C@H](CC(=O)O)NC(=O)[C@@H]1CCCN1C(=O)[C@H](Cc1ccccc1)NC(=O)[C@H](C)NC(=O)[C@H](CCC(=O)O)NC(=O)[C@H](CCCCN)NC(=O)[C@H](CC(C)C)NC(=O)[C@H](CCCCN)NC(=O)[C@H](CCC(=O)O)NC(=O)[C@H](C)NC(=O)[C@@H](NC(=O)[C@H](CCCCN)NC(=O)[C@H](CC(=O)O)NC(=O)[C@H](Cc1ccc(O)cc1)NC(=O)[C@H](Cc1ccccc1)NC(=O)[C@H](C)NC(=O)[C@H](CCCCN)NC(=O)[C@H](CC(C)C)NC(=O)[C@H](Cc1c[nH]c2ccccc12)NC(=O)[C@@H](N)CC(=O)O)C(C)C)C(=O)N[C@@H](CCCCN)C(=O)N[C@@H](C)C(=O)N[C@@H](Cc1ccccc1)C(=O)N[C@@H](Cc1ccc(O)cc1)C(=O)N[C@@H](CC(=O)O)C(=O)N[C@@H](CCCCN)C(=O)N[C@H](C(=O)N[C@@H](C)C(=O)N[C@@H](CCC(=O)O)C(=O)N[C@@H](CCCCN)C(=O)N[C@@H](CC(C)C)C(=O)N[C@@H](CCCCN)C(=O)N[C@@H](CCC(=O)O)C(=O)N[C@@H](C)C(=O)N[C@@H](Cc1ccccc1)C(=O)O)C(C)C [Peptide L-37PA] (H-DWLKAFYDKVAEKLKEAFPDWLKAFYDKVAEKLKEAF-OH; N-terminus and C-terminus assumed),competition against 125I-LPS,CLA-1 [1],efficiently competes against iodinated LPS; also recorded: competed in a dose-dependent manner
same,effect on Bodipy-LPS uptake (surface binding and internalization),[2],markedly decreases surface binding of LPS and intracellular LPS transport to the Golgi complex; also recorded: nearly eliminated Bodipy-LPS cellular uptake
same,effect on Bodipy-LPS uptake (surface binding and internalization),[2]; listed as L37PA,diminished Bodipy LPS uptake
same,"effect on LPS-stimulated cytokine (IL-8, IL-6, TNF-α) production",THP-1 cells [3],similarly effective in a blocking; also recorded: dose-dependently blocks
same,effect on IL-6 and IL-8 secretion induced by human HSP60,THP-1 cells [4],blocked
same,effect on LTA and Gro-EL stimulated IL-8 and IL-6 production,"THP-1 cells [4]; 1 μg/ml LTA or Gro-EL, 10-200 fold excess of peptide, THP-1 cells",blocks production of IL-8 and IL-6 elicited by LTA and Gro-EL; also recorded: blocks the proinflammatory response induced by LTA; also recorded: similarly effective in blocking
same,effect on LAL activity of LPS in the absence of bivalent cations,[5],significantly reduces LPS activity; also recorded: decreased LPS activity in the LAL test
same,effect on LAL activity of LPS in the absence of bivalent cations,[5]; listed as L37P A,similarly neutralized LPS activity
same,effect on LAL activity of LPS in media containing bivalent cations,[5],No substantial LPS neutralization; also recorded: does not neutralize LPS; also recorded: neither L-37PA nor D-37PA affected LPS's endotoxin activity
same,effect on LAL activity of LPS in media containing bivalent cations,[5]; listed as L37P A,had no effect on the LAL activity of LPS in culture media
same,effect on TNFα-induced IL-6 and IL-8 production,THP-1 cells [6],"neither peptides was effective in blocking; also recorded: Neither TNFα-induced IL-6 nor IL-8 secretion, LDH release nor of β-actin expression are affected"
same,uptake in CLA-1 transfected HeLa cells compared with mock-transfected control,CLA-1 [7],Increased surface binding and internalization
same,competition with Alexa 488-SAA for CLA-1,CLA-1 [8],compete with Alexa 488-SAA for CLA-1; also recorded: competed for CLA-1 binding with Alexa 488-SAA
